This series has as its target T1, BP1 (endogenous, K562 nuclear extract) (Homo sapiens) (UniProt Q92988).
T1 sequence (limits assumed): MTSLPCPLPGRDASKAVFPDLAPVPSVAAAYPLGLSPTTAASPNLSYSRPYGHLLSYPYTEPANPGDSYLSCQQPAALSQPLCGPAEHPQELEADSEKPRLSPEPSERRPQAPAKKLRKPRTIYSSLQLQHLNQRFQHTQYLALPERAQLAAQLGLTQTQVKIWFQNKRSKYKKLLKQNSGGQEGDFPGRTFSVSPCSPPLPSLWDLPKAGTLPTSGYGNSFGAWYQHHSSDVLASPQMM
The series can be described thus: competition with a labelled probe. The conditions noted are these: CITED Berg 1991, Elion 1992, Zeng 1994; EMSA competition; protein in an extract; variant of -530 Reference (Silencer I).

For at least one entry, the source does not settle the construct or the ends of the probe. Where cells or extracts were used, other partners may take part. Where a protein sequence is shown, tags need not be part of it.

In the case of “TGTACATATACACATATATATATATATATATTTTTTCTTTTCTTACCAGAAGGTTT (double strand) [-530 Indian haplotype (Silencer I)]”, the binding result is recorded as “binds”.

These data come from patent publication US20030171273, “Novel transcription factor, BP1” (published 2003).
